For at least one compound, name, drawing or mass did not settle the structure.
Test: Fluorescence measurement of compounds
Format: physicochemical
Details: FIG. 4

With `O=C1OC2(c3ccc(O)cc3Oc3cc(O)ccc32)c2ccccc21` [Fluorescein] as the compound, how does the Fluorescence activity read?
Its Fluorescence activity is “show activity for fluorescence”.
